Source: patent publication US20150374692A1
No constants are given. Whether binding was seen depends on the method and setting. Binding seen in cells or lysates may run through a third protein. Some entries that bind do so weakly or less than the wild type.

Chains of the proteins cited; added tags and fusions are not shown. Lines headed by an entry give the natural chain unless they say otherwise; changes in a name come on top.
UniProt P16070: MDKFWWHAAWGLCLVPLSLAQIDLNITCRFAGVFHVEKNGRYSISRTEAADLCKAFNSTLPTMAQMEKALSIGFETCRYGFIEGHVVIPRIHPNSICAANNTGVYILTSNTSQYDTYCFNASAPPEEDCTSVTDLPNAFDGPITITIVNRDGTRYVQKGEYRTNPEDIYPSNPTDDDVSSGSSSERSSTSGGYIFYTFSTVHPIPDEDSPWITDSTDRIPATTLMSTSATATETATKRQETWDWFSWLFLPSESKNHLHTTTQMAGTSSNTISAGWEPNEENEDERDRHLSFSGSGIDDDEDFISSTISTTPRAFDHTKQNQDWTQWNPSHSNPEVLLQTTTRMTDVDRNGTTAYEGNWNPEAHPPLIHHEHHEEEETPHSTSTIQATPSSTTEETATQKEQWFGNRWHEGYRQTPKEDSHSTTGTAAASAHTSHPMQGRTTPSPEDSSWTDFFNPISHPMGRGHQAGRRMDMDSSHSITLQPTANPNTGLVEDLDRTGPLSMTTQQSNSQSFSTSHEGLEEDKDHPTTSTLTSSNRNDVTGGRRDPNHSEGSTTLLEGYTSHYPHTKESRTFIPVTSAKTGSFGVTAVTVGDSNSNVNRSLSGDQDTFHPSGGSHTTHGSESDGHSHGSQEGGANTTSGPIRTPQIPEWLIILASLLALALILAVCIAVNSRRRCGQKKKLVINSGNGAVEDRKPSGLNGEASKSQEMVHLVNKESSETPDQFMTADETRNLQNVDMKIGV

How the values were obtained:
[1] = target: human EGFR (Epidermal Growth Factor Receptor) (human) (UniProt P00533); assay: co-immunoprecipitation (IP EGFR, WB CD44) from 468 cell extract
[2] = target: human EGFR (Epidermal Growth Factor Receptor) (human) (UniProt P00533); assay: co-immunoprecipitation (IP EGFR, WB CD44) from 468 cell extract, FIG. 4H
[3] = target: human EGFR (Epidermal Growth Factor Receptor) (human) (UniProt P00533); assay: co-immunoprecipitation (IP EGFR, WB CD44) from MDA-MB-231 cell extract, FIG. 12C

binding [1]: binds
binding [2]: binds
binding [3]: binds
Substance: human CD44 (from UniProt P16070 21-742) (receptor)
